# Screen size: about 59,000 compounds; about 6,500 (11%) were called active. Inconclusive results, whose numbers are uncertain, are shown with a selection of clear calls. No stated cut-off is given here; in the data, active means max dye-equivalent concentration above about 10 nM; inconclusive means mostly about 1.1 nM to 9.6 nM; inactive means weaker than that.
# Test: qHTS Assay for Spectroscopic Profiling in A350 Spectral Region
# Conditions: Compound autofluorescence, 340/450 nm, Alexa 350 dye-equivalents; active compounds read high
row,SMILES,max dye-equivalent concentration
1,CCCC(=O)N1CC2(CCC)CN(C(=O)CCC)CC(CCC)(C1)C2=O,inconclusive: 4.5 nM
2,COC(=O)c1nnn(CC(=O)Nc2ccc(C)c(F)c2)c1C(=O)OC,inconclusive: 1.1 nM
3,CCOC(=O)c1ccc(NC(=O)Nc2cc(C)on2)cc1,inconclusive: 3.2 nM
4,COc1ccc(C(c2nnnn2Cc2ccccc2)N2CCN(c3ccccc3)CC2)cc1 (stereo not drawn),inconclusive: 5.9 nM
5,COc1ccccc1N(CCC#N)C(=O)CSc1nc(-c2ccccc2)cn1N,inactive
6,O=C(Nc1nc2cc3c(cc2s1)OCCO3)c1cccc(S(=O)(=O)N2CCOCC2)c1,active: 15 nM
7,CC(C)(C)n1nc2c(c1NC(=O)c1ccco1)CS(=O)C2 (stereo not drawn),inactive
8,Cc1cc(C)c2cc(CN(CCO)C(c3nnnn3Cc3ccc(F)cc3)C(C)C)c(=O)[nH]c2c1 (stereo not drawn),active: 11 nM
9,C=CCN1C(=O)/C(=C2/Sc3ccccc3N2C)SC1=Nc1c(C)n[nH]c1C,inconclusive: 2.1 nM
10,CC(C(=O)Nc1cccnc1)N1C(=O)c2ccccc2C1=O (stereo not drawn),inactive
11,c1ccc(OCc2nc(-c3ccccc3)no2)cc1,inactive
12,CC1Cc2ccccc2N1C(=O)CSc1nc(-c2ccco2)cc(C(F)(F)F)n1 (stereo not drawn),inconclusive: 2.8 nM
13,CCn1c(=O)cc(OCC(=O)Nc2ccc(C)cn2)c2ccccc21,inactive
14,CSc1ccccc1NC(=O)c1cccnc1,inconclusive: 2.5 nM
15,Cc1cc(C)n(-c2ncnc3c2oc2ccccc23)n1,inconclusive: 2.1 nM
16,CCOC(=O)C(C)n1cnc2c(oc3ccccc32)c1=O (stereo not drawn),inconclusive: 2 nM
17,Cc1cc(C)c2c(n1)nn1c(-n3ccnc3)cc(C)nc21,active: 260 nM
18,COc1ccc(-c2c3c(=O)n(C)c(=O)n(C)c3cn2-c2ccccc2)cc1,inconclusive: 6.1 nM
19,Cc1ccc(S(=O)(=O)N2CCCC2C(=O)NCCc2nc3ccccc3[nH]2)cc1 (stereo not drawn),active: 8600 nM
20,Cc1ccc(-c2nc(C)sc2CC(=O)NCc2ccco2)cc1,active: 13 nM
21,CCOC(=O)NC(=O)CSc1nc(C)cc(C(F)(F)F)c1C#N,inactive
22,COc1ccc(CN2CCN(c3cc(C)nc4c5c(C)cc(C)nc5nn34)CC2)cc1F,active: 330 nM
23,COc1cc(OC)cc(C(=O)NCCN2CCOCC2)c1,inconclusive: 1.7 nM
24,Cc1ccc(S(=O)(=O)Nc2ccc3nc(-c4cccn4C)[nH]c3c2)cc1,inactive

row,SMILES,max dye-equivalent concentration
1,COc1ccc2c(c1)C1(Nc3ccccc3-c3nc4ccccc4n31)C(=O)N2 (stereo not drawn),inconclusive: 3.2 nM
2,O=C(O)CCC(=O)N1CCN(c2ccc(C(=O)c3ccc(F)cc3)cc2)CC1,inconclusive: 1.6 nM
3,Cn1nnnc1SCC(=O)N1c2ccccc2Sc2ccccc21,inconclusive: 1.1 nM
4,C=C(C)CNCCN,inactive
5,CCOc1ccc(CNC(=O)NS(=O)(=O)c2ccc(OC)cc2)cc1,inconclusive: 2.6 nM
6,CCCOc1ccc(/C(O)=C2\C(=O)C(=O)N(CCCN(C)C)C23C(=O)N(C)c2ccccc23)cc1 (stereo not drawn),inconclusive: 3.4 nM
7,CCn1c(SCC(=O)c2ccccc2)nnc1-c1cnccn1,inconclusive: 2 nM
8,O=c1c2ccccc2nc2n1CCc1c-2[nH]c2ccccc12,active: 31 nM
9,CN(C)c1ccccc1CN1CCCN(Cc2ccccc2N(C)C)C1c1ccncc1,inactive
10,COC(=O)c1ccc(C2/C(=C(/O)c3ccc(OC)cc3)C(=O)C(=O)N2CC2CCCO2)cc1 (stereo not drawn),inconclusive: 1.2 nM
11,Cc1c(C(=O)OC2CCCCC2)sc2nc[nH]c(=O)c12,inconclusive: 2.5 nM
12,CC(C)(C)NS(=O)(=O)c1cccc(S(=O)(=O)c2cccc(S(=O)(=O)NC(C)(C)C)c2)c1,inconclusive: 1.2 nM
13,Cn1c(=O)c2c(nc(CN3CCN(c4ccccc4F)CC3)n2CCCc2ccccc2)n(C)c1=O,inactive
14,O=C(NCCN1CCOCC1)c1cn(CCc2ccccc2)nn1,inconclusive: 4.6 nM
15,Cc1ccccc1-n1c(SCc2cc(=O)n3ccccc3n2)nc2[nH]ncc2c1=O,inconclusive: 2.3 nM
16,O=C(NCc1ccco1)Oc1ccccc1,inactive
17,Nc1ccccc1-c1nc2ccccc2[nH]1,active: 370 nM
18,Cc1nn(-c2ccc(F)cc2)c2c1cc(C#N)c1nc3ccccc3n12,active: 600 nM
19,CCn1c(Oc2ccc(Oc3ncc(Cl)cc3Cl)cc2)nc2c1c(=O)n(C)c(=O)n2C,inactive
20,O=C(Nc1nc2ccccc2[nH]1)c1ccccc1F,inconclusive: 1.1 nM
21,CCOC(=O)CN1CC23C=CC(O2)C(C(=O)NC2CCCCC2)C3C1=O (stereo not drawn),active: 11 nM
22,O=C1CC(c2ccc(F)cc2)Cc2nc(N3CCOCC3)ncc21 (stereo not drawn),inconclusive: 1.2 nM
23,COc1ccc(OC)c(C(=O)C2COC(=O)C2)c1 (stereo not drawn),inconclusive: 3.2 nM
24,Fc1cnc(N2CCOCC2)nc1NCc1ccccc1,inconclusive: 4.1 nM

row,SMILES,max dye-equivalent concentration
1,O=C(Oc1ccccc1OC(=O)N1CCOCC1)N1CCOCC1,inconclusive: 4.6 nM
2,CCCC1=[N+](CC)CCn2c(C)ccc21,inconclusive: 3 nM
3,Clc1ccc(-c2nn3cnnc3s2)c(Cl)c1,inconclusive: 1.5 nM
4,Cn1c(N)c(C(=O)COC(=O)C2(c3cccc(F)c3)CCCC2)c(=O)n(C)c1=O,inconclusive: 1.3 nM
5,CC(C)CC(=O)Nc1ncnc2c1C(=O)CC(C)(C)C2,inconclusive: 2.6 nM
6,O=c1c2ccccc2n2cnnc2n1-c1ccccc1,active: 42 nM
7,O=S(=O)(NC1CCCCC1)c1ccc(Cl)s1,inactive
8,COC(=O)c1[nH]c2cccc(OC)c2c1NC(=O)CCN1CCC(C(N)=O)CC1,inconclusive: 3.4 nM
9,CCN(CC(=O)NC)S(=O)(=O)c1ccc(C)cc1,inconclusive: 5.9 nM
10,COc1cccc(-c2nc(NCCN3CCOCC3)c3ccccc3n2)c1,inconclusive: 6.6 nM
11,C#CC1(O)CC(C)N(C)C(C)C1 (stereo not drawn),inactive
12,CN(CCCC(=O)NCc1ccco1)S(=O)(=O)c1ccccc1,inactive
13,O=C1OCc2cccc3cccc1c23,active: 77 nM
14,CC(C)n1c(N2CCN(C(=O)N3CCCCC3)CC2)nc2ccccc21,active: 18 nM
15,COCCNC(=O)c1ccccc1-c1nc(-c2ccccc2Cl)no1,inactive
16,CCOC(=O)C1CCN(CC(=O)N2C(C)CCCC2C)CC1 (stereo not drawn),inactive
17,CC(C)N(Cc1ccccc1)S(=O)(=O)c1n[nH]c(C(C)(C)C)n1,inconclusive: 1.3 nM
18,COc1ccc(-n2nc3cc(C)c(N)c(Br)c3n2)cc1,active: 27 nM
19,COc1ccc(C(=O)N2CCC3(CC2)CN(c2ncccn2)C3)cc1,inactive
20,Cc1ccc2[nH]c3c(N4CCCCCC4)ncnc3c2c1,inconclusive: 1.3 nM
21,Cc1cc(S(=O)(=O)N(Cc2ccccn2)Cc2ccco2)ccc1-n1cnnn1,inconclusive: 1.4 nM
22,Cc1ccc(CNC(=O)CCNS(=O)(=O)c2ccc3c(c2)c(=O)n(C)c(=O)n3C)cc1,inconclusive: 3 nM
23,CCCCCn1c(S(=O)(=O)O)nc2ccccc21,inconclusive: 4.6 nM
24,CCc1[nH]nc2c1C(c1ccc(Br)s1)C(C#N)=C(N)O2 (stereo not drawn),inconclusive: 3.7 nM

# 3 compounds picked at random from those above:
row,SMILES,max dye-equivalent concentration
20,Cc1ccc2[nH]c3c(N4CCCCCC4)ncnc3c2c1,inconclusive: 1.3 nM
24,CCc1[nH]nc2c1C(c1ccc(Br)s1)C(C#N)=C(N)O2 (stereo not drawn),inconclusive: 3.7 nM
7,O=S(=O)(NC1CCCCC1)c1ccc(Cl)s1,inactive

# Further records:

row,SMILES,max dye-equivalent concentration
1,Cc1ccccc1CSCC(=O)NC(=O)NC(C)(C)C,inconclusive: 2.2 nM
2,COc1ccc(OC)c(CC(NC(C)=O)C(=O)NC2CCN(c3nc(C)cc(C)c3C#N)CC2)c1 (stereo not drawn),inconclusive: 7.8 nM
3,O=C1CC(c2ccco2)Cc2nc(N3CCc4ccccc4C3)ncc21 (stereo not drawn),inconclusive: 4.8 nM
4,Cc1ccc(-n2c(N)c(C(N)=O)sc2=S)c(C)c1,inconclusive: 1.3 nM
5,O=C(CCNS(=O)(=O)c1cccc2nsnc12)NC1CCCc2ccccc21 (stereo not drawn),inactive
6,Cc1noc(C)c1COC(=O)c1ccc2c(c1)OCO2,inconclusive: 7.4 nM
7,C=CCn1c(SCC(=O)c2ccccc2)nnc1-c1cc2ccccc2o1,inconclusive: 3.6 nM
8,Cc1nnc2sc(-c3ccc(NC(=O)c4ccc(-c5ccc(Br)cc5)o4)cc3)nn12,active: 260 nM
9,CCCOc1ccc(/C(O)=C2/C(=O)C(=O)N(CCCOC)C2c2cccnc2)cc1 (stereo not drawn),inconclusive: 2.5 nM
10,O=C(O)Cc1nc2nc3c(c(=O)n2[nH]1)CCCC3,inconclusive: 1.4 nM
11,O=C(CSc1nnc(CNC(=O)c2ccccc2F)o1)c1ccccc1,inactive
12,Cc1nnc(NC(=O)c2ccccc2F)s1,inactive
13,COC(=O)Cc1c(C)c2c(O)cc(C)cc2oc1=O,active: 370 nM
14,CN1C=CC2=C(C#N)C(N)C(C#N)(C#N)C(c3ccccc3)C2C1 (stereo not drawn),active: 1300 nM
15,c1coc(-c2nc3nc4ccccc4nc3n2CC2CCCO2)c1 (stereo not drawn),active: 17000 nM
16,O=C(CCC(=O)c1cccs1)Nc1ccccc1F,inconclusive: 3.1 nM
17,CCC(=O)N1CCc2cc(S(=O)(=O)CCC(=O)NCCC3=CCCCC3)ccc21,inactive
18,CCOc1ccc(NS(=O)(=O)c2ccc3[nH]cc(C(=O)N(CC)CC)c(=O)c3c2)cc1,active: 15 nM
19,CN1CCC(=C2c3ccccc3CCc3sccc32)CC1,inconclusive: 1.5 nM
20,O=C(CN1CCC(n2nnc3ccccc32)CC1)Nc1ccc2c(c1)CCC2,inconclusive: 10 nM
21,COc1ccc(CCC(=O)Nc2ccc(Br)cn2)cc1,inconclusive: 8.1 nM

# Filtered by structure, those above with bromine (four)
row,SMILES,max dye-equivalent concentration
18,COc1ccc(-n2nc3cc(C)c(N)c(Br)c3n2)cc1,active: 27 nM
24,CCc1[nH]nc2c1C(c1ccc(Br)s1)C(C#N)=C(N)O2 (stereo not drawn),inconclusive: 3.7 nM
8,Cc1nnc2sc(-c3ccc(NC(=O)c4ccc(-c5ccc(Br)cc5)o4)cc3)nn12,active: 260 nM
21,COc1ccc(CCC(=O)Nc2ccc(Br)cn2)cc1,inconclusive: 8.1 nM
